In PubChem BioAssay AID248 (DTP/NCI, 2004):
The list does not hold the whole screen: it gathers tests that were run many times, whatever their T/C, doses with no T/C, and many T/C values between a quarter and a half above the control. Other doses and runs of a compound stand elsewhere. T/C gives the treated animals as a percentage of the vehicle group. Some doses have a count of surviving animals in place of a T/C: the source files T/C as zero there, which appears to mark a toxic dose or a test without result, not a measured value. Some doses without a T/C left all or most animals alive at the check, yet need not have been tolerated: survival well below the control is almost never listed, so the zero probably covers shortened survival too. Survivors were counted at the toxicity check, usually on the fifth day, unless a day is given; later deaths do not show. Schedules are NCI's codes, read here as Q, the interval in days (D) or hours (H), X, the number of doses. Some schedule codes hold Z or #, which are not explained here. Where survival is the endpoint, this PubChem deposit counts one and a half times the control or more as active, and values a quarter to a half above the control carry no call in these data; other NCI protocols may use other cut-offs. Some entries hold several experiments; the values are given in rising order. Brackets with × count equal records among those shown.

Test system: L1210 leukemia ip in BDF1 mice, survival T/C
Test: NCI In Vivo Anticancer Drug Screen. Data for tumor model L1210 Leukemia (intraperitoneal) in B6D2F1 (BDF1) mice
Details: T/C endpoint: mean survival time, higher T/C = longer survival
[1] = dose: 400.0 mg/kg/injection, schedule: Q01DX009 (ip), vehicle: saline with Tween-80
[2] = dose: 200.0 mg/kg/injection, schedule: Q04DX002 (ip), vehicle: saline with Tween-80
[3] = dose: 400.0 mg/kg/injection, schedule: Q04DX002 (ip), vehicle: saline with Tween-80

With `CC1CCC(NC(=O)N(CCF)N=O)CC1` (stereo not given) the T/C (dose: 12.0 mg/kg/injection, schedule: Q01DX001 (ip), vehicle: other) was 131 % of control, the T/C (dose: 18.0 mg/kg/injection, schedule: Q01DX001 (ip), vehicle: other) was 148 % of control and the survivor count (dose: 90.0 mg/kg/injection, schedule: Q01DX001 (ip), vehicle: other) was 5 of 10. For the same molecule, the survivor count (dose: 135.0 mg/kg/injection, schedule: Q01DX001 (ip), vehicle: other) was 2 of 10 and the survivor count (dose: 200.0 mg/kg/injection, schedule: Q01DX001 (ip), vehicle: other) was 0 of 10.
In the case of `COc1cc(OC)cc(C(N)=O)c1`, the survivor count (dose: 200.0 mg/kg/injection, schedule: Q04DX003 (ip), vehicle: Klucel (hydroxypropylcellulose) (HPC)) is reported as 6 of 6.
For `S=c1nc[nH]c2c1ncn2CN1CCCCC1`, the survivor count (dose: 200.0 mg/kg/injection, schedule: Q01DX Z (ip), vehicle: carboxymethylcellulose (CMC)) was 2 of 6.
`CCCn1c2c(c(=O)n(CC)c1=O)S(=O)C(OCC)C(=O)N2` (stereo not given) was tested, and the survivor count (dose: 78.0 mg/kg/injection, schedule: Q01DX Z (ip), vehicle: other) was 6 of 6.
`N#CC=P(c1ccccc1)(c1ccccc1)c1ccccc1` was tested, and the survivor count (dose: 100.0 mg/kg/injection, schedule: Q01DX009 (ip), vehicle: saline) was 6 of 6 and the survivor count (dose: 200.0 mg/kg/injection, schedule: Q01DX009 (ip), vehicle: saline) was 6 of 6.
In the case of `CN(C)C(=O)C(c1ccccc1)[P+](C)(c1ccccc1)c1ccccc1` (stereo not given), the survivor count (dose: 150.0 mg/kg/injection, schedule: Q01DX001 (ip), vehicle: other) is reported as 3 of 6 and the survivor count (dose: 300.0 mg/kg/injection, schedule: Q01DX001 (ip), vehicle: other) is reported as 2 of 6.
With `CCOC(=O)c1ncc(Cl)cc1N` the survivor count (dose: 400.0 mg/kg/injection, schedule: Q01DX001 (ip), vehicle: Klucel (hydroxypropylcellulose) (HPC)) was 0 of 6.
With `Cc1nc(C(=O)O)c(=O)[nH]c1C` the survivor count (dose: 300.0 mg/kg/injection, schedule: Q01DX009 (ip), vehicle: water) was 0 of 6 and the survivor count (dose: 400.0 mg/kg/injection, schedule: Q04DX003 (ip), vehicle: water) was 1 of 6.
`COc1ccc(C(O)(c2ccccc2)C(OC(=O)CCl)c2ccccc2)cc1` (stereo not given) was tested, and the survivor count (dose: 100.0 mg/kg/injection, schedule: Q01DX009 (ip), vehicle: saline with Tween-80) was 6 of 6 and the survivor count [1] was 6 of 6.
For `CCOC(=N)N1Cc2ccccc2CCc2ccccc2C1`, the survivor count (dose: 100.0 mg/kg/injection, schedule: Q01DX009 (ip), vehicle: Klucel (hydroxypropylcellulose) (HPC)) was 0 of 6, the survivor count (dose: 100.0 mg/kg/injection, schedule: Q04DX002 (ip), vehicle: Klucel (hydroxypropylcellulose) (HPC)) was 0 of 3 and the survivor count (dose: 200.0 mg/kg/injection, schedule: Q01DX009 (ip), vehicle: Klucel (hydroxypropylcellulose) (HPC)) was 0 of 6. For the same molecule, the survivor count (dose: 400.0 mg/kg/injection, schedule: Q01DX009 (ip), vehicle: Klucel (hydroxypropylcellulose) (HPC)) was 0 of 6.
For `CC(NN)c1ccccc1` (stereo not given), the survivor count (dose: 200.0 mg/kg/injection, schedule: Q01DX001 (ip), vehicle: saline) was 2 of 4 and the survivor count (dose: 400.0 mg/kg/injection, schedule: Q01DX001 (ip), vehicle: saline) was 0 of 4.
For `Cc1[nH]c(N)nc(=S)c1CCCN(C(=O)c1ccccc1)c1ccccc1`, the survivor count (dose: 75.0 mg/kg/injection, schedule: Q01DX001 (ip), vehicle: Klucel (hydroxypropylcellulose) (HPC)) was 6 of 6.
In the case of `O=C(CCc1ccc(C(=O)Nc2ccc(C3=NCCCN3)cc2)cc1)Nc1ccc(C2=NCCCN2)cc1`, the T/C (dose: 1.5 mg/kg/injection, schedule: Q01DX Z (ip), vehicle: water) is reported as 138 % of control, the T/C (dose: 2.0 mg/kg/injection, schedule: Q01DX Z (ip), vehicle: water) is reported as 131 % of control and the survivor count (dose: 16.0 mg/kg/injection, schedule: Q01DX Z (ip), vehicle: water) is reported as 3 of 6.
With `Cc1ccccc1C(O)c1cnc(C)n1Cc1ccccc1` (stereo not given) the T/C (dose: 100.0 mg/kg/injection, schedule: Q04DX002 (ip), vehicle: saline with Tween-80) was 90 (2×), 95, 105 % of control, the T/C [2] was 93, 98, 100 % of control and the survivor count [2] was 3 of 3. The survivor count [1] was 3 of 3, the T/C [3] was 88, 93, 100 % of control and the survivor count [3] was 3 of 3.
For `CCCCCCCCCCCCNC(=O)C[n+]1ccc(C(N)=O)cc1`, the survivor count (dose: 200.0 mg/kg/injection, schedule: Q04DX003 (ip), vehicle: saline) was 0 of 6 and the survivor count (dose: 400.0 mg/kg/injection, schedule: Q04DX003 (ip), vehicle: saline) was 1 of 6.
